Measurements reported in PubChem BioAssay AID1259266 (Sanger Institute, 2017)
Purpose: 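Search kinases and colorectal cancer genes for essential genes and drug synergy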 (primary screen). System: LS123 human colorectal cancer cells. Reagents: siRNA pool against human genes. Conditions: anchor drugs BYL719 (1 µM), cetuximab (5 µg/ml) or trametinib (10 nM), each chosen to barely slow growth alone; DMSO vehicle as the drug-free arm. Read-out: 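Replicate-averaged viability scaled to non-targeting pools, robust z-score for siRNA alone, and a synergy score per anchor drug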. Scale: robust z-score, knock-down alone: higher = more cells surviving after knock-down; viability, knock-down alone: higher = more viable cells. Units: viability, knock-down alone in fraction of control. Active means: 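Essential when the robust z-score of the knock-down alone is below -3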. Meaning of the calls: active = essential (knock-down alone cuts viability); inactive = no change.
Here is a random part of 794 reagents. In the full data, 16 (2%) got an active call. 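Calls reflect knock-down alone, not drug synergy; viability seems capped at 1 and z-scores at 0.585.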 Unmarked entries are inactive. Further read-outs or replicates are left out here. No sequences are given here. The record does not give: the amount of reagent, the time to read-out.

For BMAL1 (basic helix-loop-helix ARNT like 1), the values are robust z-score, knock-down alone -2.38; viability, knock-down alone 0.824.
MAPKAPK5 (MAPK activated protein kinase 5) scored robust z-score, knock-down alone -0.245; viability, knock-down alone 0.951.
Silencing of GAK (cyclin G associated kinase) gave: robust z-score, knock-down alone 0.424; viability, knock-down alone 0.99.
PIK3R1 (phosphoinositide-3-kinase regulatory subunit 1) showed robust z-score, knock-down alone 0.585; viability, knock-down alone 1.
After knock-down of CALM1 (calmodulin 1), the screen gave robust z-score, knock-down alone 0.585; viability, knock-down alone 1.
After knock-down of SIK1 (salt inducible kinase 1), the record shows robust z-score, knock-down alone 0.444; viability, knock-down alone 0.992.
With knock-down of MAGI1, the screen gave robust z-score, knock-down alone 0.585; viability, knock-down alone 1.
Depletion of SNRK (SNF related kinase) came out at: robust z-score, knock-down alone 0.585; viability, knock-down alone 1.
For MAPK4 (mitogen-activated protein kinase 4) the deposit lists robust z-score, knock-down alone 0.585; viability, knock-down alone 1.
CHKB (choline kinase beta) showed robust z-score, knock-down alone 0.0131; viability, knock-down alone 0.966.
With knock-down of CAMK1D (calcium/calmodulin dependent protein kinase ID), the screen gave robust z-score, knock-down alone 0.254; viability, knock-down alone 0.98.
Depletion of MAP3K12 (mitogen-activated protein kinase kinase kinase 12) came out at: robust z-score, knock-down alone 0.585; viability, knock-down alone 1.
With knock-down of CHD4 (chromodomain helicase DNA binding protein 4), the screen gave robust z-score, knock-down alone -1.36; viability, knock-down alone 0.884.
With knock-down of TWF1 (twinfilin actin binding protein 1) the results were robust z-score, knock-down alone 0.585; viability, knock-down alone 1.

Copied from the list.
Under “viability, knock-down alone”, PIK3R1 (phosphoinositide-3-kinase regulatory subunit 1) is entered as 1
Entry of CHKB (choline kinase beta) in “robust z-score, knock-down alone”: 0.0131

Continued:
After knock-down of CDK3 (cyclin dependent kinase 3), the record shows robust z-score, knock-down alone -0.545; viability, knock-down alone 0.933.
Against DLG2 (discs large MAGUK scaffold protein 2) the deposit lists robust z-score, knock-down alone 0.585; viability, knock-down alone 1.
MINK1 (misshapen like kinase 1) scored robust z-score, knock-down alone 0.585; viability, knock-down alone 1.
ELP1 (elongator acetyltransferase complex subunit 1) gave robust z-score, knock-down alone 0.585; viability, knock-down alone 1.
Knock-down of LMTK2 (lemur tail kinase 2) came out at: robust z-score, knock-down alone 0.0859; viability, knock-down alone 0.97.
MAST2 (microtubule associated serine/threonine kinase 2) gave robust z-score, knock-down alone 0.06; viability, knock-down alone 0.969.
After knock-down of SRGAP3 (SLIT-ROBO Rho GTPase activating protein 3) the results were robust z-score, knock-down alone 0.487; viability, knock-down alone 0.994.
With knock-down of CDK4 (cyclin dependent kinase 4), the record shows robust z-score, knock-down alone -0.977; viability, knock-down alone 0.907.
For DDR1 (discoidin domain receptor tyrosine kinase 1), the values are robust z-score, knock-down alone 0.585; viability, knock-down alone 1.
Depletion of NME6 (NME/NM23 nucleoside diphosphate kinase 6) came out at: robust z-score, knock-down alone -1.74; viability, knock-down alone 0.862.
Depletion of CSNK1G3 (casein kinase 1 gamma 3) gave: robust z-score, knock-down alone 0.585; viability, knock-down alone 1.
Knock-down of MAP4K2 (mitogen-activated protein kinase kinase kinase kinase 2) came out at: robust z-score, knock-down alone 0.322; viability, knock-down alone 0.984.
Against CDKL5 (cyclin dependent kinase like 5), the values are robust z-score, knock-down alone 0.585; viability, knock-down alone 1.
Depletion of GALK1 (galactokinase 1) gave: robust z-score, knock-down alone -3.65 (active); viability, knock-down alone 0.749.
